Values from PubChem BioAssay AID1159508 (Drosophila RNAi Screening Center, 2015).
Purpose: 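Viability reference data for a dsRNA library against RNA-binding protein genes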. Cells: Drosophila S2R+ cells. Reagents: long dsRNA against Drosophila genes. Duration: 5 days. Detection: 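Luminescent ATP signal as a proxy for cell fitness after 5 days of RNAi, given as a z-score in each replicate and averaged over replicates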. Direction: mean ATP z-score and ATP z-score: higher = more total ATP luminescence. Active means: In these data the active calls have mean ATP z-score at about -2 or lower, or at about 2 or higher. Calls: active = strong ATP change (up or down); inactive = no strong ATP change.
The deposit covers 812 reagents; below is a part drawn at random. Of all reagents, 18 (2.2%) are marked active. 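Calls include both increased and decreased ATP; roughly one in four reagents has no third replicate value.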 Unmarked entries are inactive. The numbers tell different reagents against one gene apart. Not given: the amount of reagent.

| predicted target | dsRNA no. | mean ATP z-score | ATP z-score, replicate 1 | ATP z-score, replicate 2 | ATP z-score, replicate 3 |
| --- | --- | --- | --- | --- | --- |
| Dis3l2 (Dis3 like 3'-5' exoribonuclease 2) | 1 | 0.342 | -0.229 | 0.0211 | 1.17 |
| Dis3l2 (Dis3 like 3'-5' exoribonuclease 2) | 2 | 0.107 | -0.767 | 0.224 | 0.844 |
| pum (pumilio) | 1 | 0.755 | -0.0336 | 0.866 | 1.29 |
| pum (pumilio) | 2 | 0.534 | 0.319 | 0.505 | 0.675 |
| La (La autoantigen-like) | 1 | -0.0492 | -0.427 | 0.0668 | 0.222 |
| La (La autoantigen-like) | 2 | -0.299 | -0.747 | -0.334 | 0.242 |
| CG4887 | 1 | -0.301 | -0.907 | 0.00843 | 0.0539 |
| CG4887 | 2 | -0.833 | -0.921 | -0.638 | – |
| U2af38 (U2 small nuclear riboprotein auxiliary factor 38) | 1 | -0.788 | -1.07 | -0.757 | -0.385 |
| U2af38 (U2 small nuclear riboprotein auxiliary factor 38) | 2 | -0.321 | -0.336 | -0.264 | – |
| hrg (hiiragi) | 1 | -0.152 | -0.209 | -0.16 | -0.0581 |
| hrg (hiiragi) | 2 | 1.41 | 1.19 | 1.44 | – |
| Larp7 (La related protein 7) | 1 | -0.739 | -0.928 | -0.687 | -0.461 |
| Larp7 (La related protein 7) | 2 | 0.68 | 0.311 | 0.317 | 1.28 |

Records above whose target name starts with P or p:
| predicted target | dsRNA no. | mean ATP z-score | ATP z-score, replicate 1 | ATP z-score, replicate 2 | ATP z-score, replicate 3 |
| --- | --- | --- | --- | --- | --- |
| pum (pumilio) | 1 | 0.755 | -0.0336 | 0.866 | 1.29 |
| pum (pumilio) | 2 | 0.534 | 0.319 | 0.505 | 0.675 |

The list goes on.
| predicted target | dsRNA no. | mean ATP z-score | ATP z-score, replicate 1 | ATP z-score, replicate 2 | ATP z-score, replicate 3 |
| --- | --- | --- | --- | --- | --- |
| mRRF2 (mitochondrial ribosome recycling factor 2) | 1 | -0.267 | -0.383 | -0.117 | – |
| mRRF2 (mitochondrial ribosome recycling factor 2) | 2 | -0.59 | -0.689 | -0.555 | -0.412 |
| nsr (novel spermatogenesis regulator) | 1 | 0.643 | -0.198 | 0.177 | 1.83 |
| nsr (novel spermatogenesis regulator) | 2 | 1.08 | 0.891 | 0.946 | 1.19 |
| CG10803 | 1 | 0.272 | 0.196 | 0.314 | – |
| CG10803 | 2 | -0.735 | -0.801 | -0.727 | -0.536 |
| glo (glorund) | 1 | 0.785 | 0.605 | 0.721 | 0.878 |
| glo (glorund) | 2 | 1.43 | 0.95 | 1.48 | 1.59 |
| bru3 (bruno 3) | 1 | 1.46 | 1.23 | 1.26 | 1.6 |
| bru3 (bruno 3) | 2 | 0.479 | -0.733 | 0.407 | 1.67 |
